Results published in the supplement of paper PMC10849652.
The other results are listed elsewhere or left out. Residues, ends and D or L forms follow the SMILES beside them. *: point of attachment. Cbz = O=C(OCc1ccccc1)*

Protein sequences, listed by entry. Tags and fused reporters are not part of them. Lines headed by an entry give the natural chain unless they say otherwise; changes in a name come on top.
UniProt Q96CD2: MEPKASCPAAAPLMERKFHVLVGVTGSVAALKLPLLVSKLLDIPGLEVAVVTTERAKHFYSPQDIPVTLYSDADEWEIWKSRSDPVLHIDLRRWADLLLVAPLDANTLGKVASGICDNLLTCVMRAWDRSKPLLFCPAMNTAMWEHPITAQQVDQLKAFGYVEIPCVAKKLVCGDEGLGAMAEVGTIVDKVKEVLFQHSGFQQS
UniProt Q8N490: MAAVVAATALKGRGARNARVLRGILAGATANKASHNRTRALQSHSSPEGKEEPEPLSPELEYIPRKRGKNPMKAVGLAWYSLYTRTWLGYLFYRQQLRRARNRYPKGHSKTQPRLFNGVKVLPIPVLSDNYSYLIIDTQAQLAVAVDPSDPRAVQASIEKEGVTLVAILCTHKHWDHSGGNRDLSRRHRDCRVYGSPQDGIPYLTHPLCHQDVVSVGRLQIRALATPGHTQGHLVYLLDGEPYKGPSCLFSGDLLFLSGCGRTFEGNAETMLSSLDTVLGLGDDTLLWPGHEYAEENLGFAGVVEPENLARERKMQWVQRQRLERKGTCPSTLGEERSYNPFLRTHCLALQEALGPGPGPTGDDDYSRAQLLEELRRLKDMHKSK
UniProt P62937, whole entry, looked up: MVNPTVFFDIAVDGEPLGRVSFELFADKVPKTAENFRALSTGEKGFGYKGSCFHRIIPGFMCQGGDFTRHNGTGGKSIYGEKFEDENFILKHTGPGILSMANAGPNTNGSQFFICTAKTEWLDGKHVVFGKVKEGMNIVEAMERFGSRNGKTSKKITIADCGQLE
UniProt Q6UW63: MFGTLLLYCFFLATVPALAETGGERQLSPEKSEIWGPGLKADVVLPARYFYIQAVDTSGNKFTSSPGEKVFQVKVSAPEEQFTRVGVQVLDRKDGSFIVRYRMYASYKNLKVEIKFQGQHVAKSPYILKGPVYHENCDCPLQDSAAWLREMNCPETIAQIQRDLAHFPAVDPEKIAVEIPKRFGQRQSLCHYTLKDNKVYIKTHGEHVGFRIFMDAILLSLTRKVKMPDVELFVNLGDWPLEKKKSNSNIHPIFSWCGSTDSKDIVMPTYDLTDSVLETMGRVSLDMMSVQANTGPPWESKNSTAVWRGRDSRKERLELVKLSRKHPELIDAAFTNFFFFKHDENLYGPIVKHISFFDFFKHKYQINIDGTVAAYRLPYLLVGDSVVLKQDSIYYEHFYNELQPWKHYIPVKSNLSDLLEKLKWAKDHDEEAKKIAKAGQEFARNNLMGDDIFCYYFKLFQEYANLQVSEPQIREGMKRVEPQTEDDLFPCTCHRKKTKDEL
UniProt Q6P1K2: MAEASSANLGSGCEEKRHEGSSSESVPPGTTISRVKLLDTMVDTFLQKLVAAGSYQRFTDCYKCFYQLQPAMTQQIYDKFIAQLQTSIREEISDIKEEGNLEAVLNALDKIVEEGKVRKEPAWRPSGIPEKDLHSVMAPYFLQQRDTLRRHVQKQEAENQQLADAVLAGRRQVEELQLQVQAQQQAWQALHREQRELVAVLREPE
UniProt O15160, whole entry, looked up: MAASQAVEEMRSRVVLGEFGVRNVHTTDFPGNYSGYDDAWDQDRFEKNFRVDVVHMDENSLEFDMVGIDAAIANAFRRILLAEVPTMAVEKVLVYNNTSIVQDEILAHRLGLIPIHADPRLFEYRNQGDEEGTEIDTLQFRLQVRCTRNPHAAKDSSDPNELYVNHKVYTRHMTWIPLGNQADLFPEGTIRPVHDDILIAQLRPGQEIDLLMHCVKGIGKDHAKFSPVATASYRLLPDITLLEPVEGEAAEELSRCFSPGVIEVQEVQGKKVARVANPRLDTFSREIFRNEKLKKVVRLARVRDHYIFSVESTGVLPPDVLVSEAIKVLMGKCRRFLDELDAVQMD
UniProt O14802: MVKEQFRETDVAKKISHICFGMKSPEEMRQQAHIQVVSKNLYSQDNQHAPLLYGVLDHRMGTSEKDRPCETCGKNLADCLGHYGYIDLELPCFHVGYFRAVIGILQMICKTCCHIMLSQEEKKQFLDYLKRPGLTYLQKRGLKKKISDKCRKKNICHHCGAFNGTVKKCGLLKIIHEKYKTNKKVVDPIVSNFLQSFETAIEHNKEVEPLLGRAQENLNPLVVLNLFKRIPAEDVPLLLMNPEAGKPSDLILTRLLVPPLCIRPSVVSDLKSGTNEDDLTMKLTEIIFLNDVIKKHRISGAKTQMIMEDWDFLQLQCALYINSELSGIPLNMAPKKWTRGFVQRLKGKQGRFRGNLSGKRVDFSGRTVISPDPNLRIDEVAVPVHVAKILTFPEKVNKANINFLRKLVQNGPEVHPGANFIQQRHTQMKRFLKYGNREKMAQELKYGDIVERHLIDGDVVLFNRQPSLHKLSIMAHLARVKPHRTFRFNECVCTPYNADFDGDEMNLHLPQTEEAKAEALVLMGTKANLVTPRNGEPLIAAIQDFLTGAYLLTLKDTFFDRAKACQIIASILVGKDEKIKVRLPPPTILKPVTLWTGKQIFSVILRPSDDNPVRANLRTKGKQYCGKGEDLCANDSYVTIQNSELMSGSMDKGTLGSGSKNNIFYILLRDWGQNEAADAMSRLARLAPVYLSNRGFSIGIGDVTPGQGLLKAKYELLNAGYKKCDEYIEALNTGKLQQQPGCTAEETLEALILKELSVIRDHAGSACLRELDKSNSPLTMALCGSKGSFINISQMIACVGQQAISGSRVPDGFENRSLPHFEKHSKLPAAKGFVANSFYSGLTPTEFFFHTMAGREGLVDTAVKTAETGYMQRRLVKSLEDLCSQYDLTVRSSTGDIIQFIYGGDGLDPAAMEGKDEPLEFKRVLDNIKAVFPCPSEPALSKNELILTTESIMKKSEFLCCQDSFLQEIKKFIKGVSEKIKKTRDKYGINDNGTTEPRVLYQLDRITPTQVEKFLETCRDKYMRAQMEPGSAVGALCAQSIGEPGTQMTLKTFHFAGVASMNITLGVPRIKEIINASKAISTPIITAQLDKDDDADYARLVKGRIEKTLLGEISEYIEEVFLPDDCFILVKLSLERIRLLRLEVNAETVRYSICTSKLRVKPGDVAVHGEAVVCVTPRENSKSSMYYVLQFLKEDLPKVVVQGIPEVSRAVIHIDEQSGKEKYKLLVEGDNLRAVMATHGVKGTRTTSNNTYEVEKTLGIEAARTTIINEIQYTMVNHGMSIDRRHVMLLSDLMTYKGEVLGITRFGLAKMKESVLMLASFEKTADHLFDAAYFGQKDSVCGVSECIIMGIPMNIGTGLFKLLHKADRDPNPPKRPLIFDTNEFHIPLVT
UniProt O95707: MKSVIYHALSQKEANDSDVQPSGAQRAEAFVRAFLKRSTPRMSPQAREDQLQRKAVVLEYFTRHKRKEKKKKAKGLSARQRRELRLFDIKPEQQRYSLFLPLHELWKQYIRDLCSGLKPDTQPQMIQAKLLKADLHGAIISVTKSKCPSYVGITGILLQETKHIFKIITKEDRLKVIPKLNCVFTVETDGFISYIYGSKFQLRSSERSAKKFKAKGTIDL
UniProt A5A3E0, whole entry, looked up: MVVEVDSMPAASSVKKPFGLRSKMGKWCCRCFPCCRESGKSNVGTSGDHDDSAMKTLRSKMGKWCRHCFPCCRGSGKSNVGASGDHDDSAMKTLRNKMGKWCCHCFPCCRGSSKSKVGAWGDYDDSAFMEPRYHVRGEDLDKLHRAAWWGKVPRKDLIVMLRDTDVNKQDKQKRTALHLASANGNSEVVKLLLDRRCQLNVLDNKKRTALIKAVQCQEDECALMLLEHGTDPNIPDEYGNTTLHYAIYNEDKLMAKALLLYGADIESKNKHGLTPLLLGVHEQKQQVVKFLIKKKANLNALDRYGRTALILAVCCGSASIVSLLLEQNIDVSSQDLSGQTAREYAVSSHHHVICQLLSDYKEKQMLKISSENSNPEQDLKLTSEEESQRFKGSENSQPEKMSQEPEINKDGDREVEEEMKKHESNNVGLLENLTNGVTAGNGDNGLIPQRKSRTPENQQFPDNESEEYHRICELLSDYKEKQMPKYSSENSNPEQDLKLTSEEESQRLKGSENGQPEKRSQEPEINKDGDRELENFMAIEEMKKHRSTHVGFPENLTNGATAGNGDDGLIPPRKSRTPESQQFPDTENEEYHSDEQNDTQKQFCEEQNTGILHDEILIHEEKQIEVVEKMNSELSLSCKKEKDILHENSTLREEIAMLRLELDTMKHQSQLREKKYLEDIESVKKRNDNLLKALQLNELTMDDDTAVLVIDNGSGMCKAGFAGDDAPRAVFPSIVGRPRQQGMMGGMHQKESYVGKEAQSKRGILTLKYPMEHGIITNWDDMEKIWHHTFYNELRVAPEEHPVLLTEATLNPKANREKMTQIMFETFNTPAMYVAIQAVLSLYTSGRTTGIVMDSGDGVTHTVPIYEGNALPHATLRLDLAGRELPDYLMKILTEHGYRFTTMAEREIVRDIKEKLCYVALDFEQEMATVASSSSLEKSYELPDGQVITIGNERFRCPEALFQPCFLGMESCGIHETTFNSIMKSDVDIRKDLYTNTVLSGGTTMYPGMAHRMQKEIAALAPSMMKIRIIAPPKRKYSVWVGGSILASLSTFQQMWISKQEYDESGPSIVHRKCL
UniProt Q9H2U2: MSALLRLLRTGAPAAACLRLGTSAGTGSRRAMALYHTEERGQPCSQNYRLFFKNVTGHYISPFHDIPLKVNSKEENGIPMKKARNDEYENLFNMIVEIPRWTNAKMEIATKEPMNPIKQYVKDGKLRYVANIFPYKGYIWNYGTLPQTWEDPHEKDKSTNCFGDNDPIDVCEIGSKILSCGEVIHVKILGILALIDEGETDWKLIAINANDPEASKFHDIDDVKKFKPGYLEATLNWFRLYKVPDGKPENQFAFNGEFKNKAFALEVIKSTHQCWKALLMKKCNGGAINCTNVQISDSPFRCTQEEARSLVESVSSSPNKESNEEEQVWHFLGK
UniProt Q9Y2G5: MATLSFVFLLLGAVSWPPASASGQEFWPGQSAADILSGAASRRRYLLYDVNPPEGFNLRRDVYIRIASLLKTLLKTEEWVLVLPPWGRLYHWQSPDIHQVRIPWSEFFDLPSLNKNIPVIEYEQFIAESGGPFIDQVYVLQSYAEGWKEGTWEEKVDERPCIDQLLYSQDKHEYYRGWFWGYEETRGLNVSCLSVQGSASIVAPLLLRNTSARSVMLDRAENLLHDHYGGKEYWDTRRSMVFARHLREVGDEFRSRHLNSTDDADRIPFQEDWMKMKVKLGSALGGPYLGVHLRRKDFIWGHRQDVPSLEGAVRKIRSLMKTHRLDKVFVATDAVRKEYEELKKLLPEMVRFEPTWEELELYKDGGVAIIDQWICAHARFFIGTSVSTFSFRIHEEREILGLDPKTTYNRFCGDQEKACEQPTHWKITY
UniProt Q06203, whole entry, looked up: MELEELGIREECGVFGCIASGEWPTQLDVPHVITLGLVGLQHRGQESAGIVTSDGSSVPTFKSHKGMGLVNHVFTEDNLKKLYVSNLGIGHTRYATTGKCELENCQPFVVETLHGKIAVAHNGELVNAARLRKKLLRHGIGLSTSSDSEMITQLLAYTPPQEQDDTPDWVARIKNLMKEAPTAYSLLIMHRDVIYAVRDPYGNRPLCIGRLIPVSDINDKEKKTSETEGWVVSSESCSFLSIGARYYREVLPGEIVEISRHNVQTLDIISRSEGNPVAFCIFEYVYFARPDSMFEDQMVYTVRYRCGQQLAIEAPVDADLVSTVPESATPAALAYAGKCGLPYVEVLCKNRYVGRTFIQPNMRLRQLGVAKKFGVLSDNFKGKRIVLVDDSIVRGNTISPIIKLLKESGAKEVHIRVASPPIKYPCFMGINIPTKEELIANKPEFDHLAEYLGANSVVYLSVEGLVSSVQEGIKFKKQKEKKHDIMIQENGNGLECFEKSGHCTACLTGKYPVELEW
UniProt Q9NQ55: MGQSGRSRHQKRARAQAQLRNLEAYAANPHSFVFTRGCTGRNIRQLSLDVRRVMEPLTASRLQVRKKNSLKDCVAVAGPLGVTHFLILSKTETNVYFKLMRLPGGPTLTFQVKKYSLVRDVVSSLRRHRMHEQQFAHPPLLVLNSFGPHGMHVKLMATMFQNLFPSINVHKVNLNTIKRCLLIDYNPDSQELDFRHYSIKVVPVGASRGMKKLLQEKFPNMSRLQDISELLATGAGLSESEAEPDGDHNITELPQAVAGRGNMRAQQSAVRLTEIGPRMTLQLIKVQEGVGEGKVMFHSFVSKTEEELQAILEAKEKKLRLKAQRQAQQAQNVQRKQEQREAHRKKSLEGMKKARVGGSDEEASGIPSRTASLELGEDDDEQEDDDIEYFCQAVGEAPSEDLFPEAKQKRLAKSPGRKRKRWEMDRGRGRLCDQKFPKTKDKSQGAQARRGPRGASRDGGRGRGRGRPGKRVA
UniProt P23284: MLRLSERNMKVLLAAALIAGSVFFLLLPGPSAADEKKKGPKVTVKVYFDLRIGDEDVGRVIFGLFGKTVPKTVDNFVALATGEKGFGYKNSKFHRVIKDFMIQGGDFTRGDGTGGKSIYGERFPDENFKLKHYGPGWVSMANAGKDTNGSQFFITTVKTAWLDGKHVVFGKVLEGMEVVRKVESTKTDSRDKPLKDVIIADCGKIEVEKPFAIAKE

Tests used:
Assay in all cases: log2 fold change, soluble protein after heating vs DMSO (PISA); higher = thermal stabilisation; K562 cells, 10 uM, 30 min; active = over 0.2 and 3.5 SD of the protein, either way, in both replicates (recomputed)
erlotinib = compound: C#Cc1cccc(Nc2ncnc3cc(OCCOC)c(OCCOC)cc23)c1 [erlotinib]
How it was run: (§1)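 Soluble protein was defined as the supernatant after 21,000xg for 90 min. It came from K562 cells at 2×10^6 cells/mL given 10 μM compound for 30 min, heated in aliquots for 3 min across 48°C-58°C, pooled, and extracted in PBS with 0.5% NP-40 at 4°C, and was quantified by TMTpro 16plex LC-MS/MS with equalised channel sums. Thermal stability against control samples, from duplicates, is reported as log2 fold change.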

[1] = compound: C/C(=N\NC(=O)C1=CC(=CC=C1)S(=O)(=O)N2CCOCC2)/C3=C(C=CC(=C3)Cl)O
How it was run: as §1

[2] = compound: C1=CC(=C(C=C1Cl)C2=NC3=NC=CN=C3C(=N2)NC4=CC=NC=C4)F
How it was run: as §1

[3] = compound: C1=CC(=CC=C1C2=NC3=C(N2)C=C(C=C3)C(=O)N)OC4=CC=C(C=C4)Cl
How it was run: as §1

[4] = compound: C1=CC2=C(C=CC(=C2)/C=C\3/C(=O)NC(=NCC4=CC=CS4)S3)N=C1
How it was run: as §1

[5] = compound: C1=CC2=NC=CN=C2C=C1/C=C/3\C(=O)NC(=O)S3
How it was run: as §1

[6] = compound: C1=CC=C(C=C1)C2=NC(=C(N2)C3=CC=NC=C3)C4=CC(=C(C=C4)Cl)O
How it was run: as §1

[7] = compound: C1=CC=C2C(=C1)C3=NNC4=CC=CC(=C43)C2=O
How it was run: as §1

[8] = compound: C1CCN(C1)C(=O)NC2=CC=CC(=C2)NC3=NC=C(C(=N3)NCCC4=CN=CN4)Br
How it was run: as §1

[9] = compound: C1CN(CCC1(CC2=CC=C(C=C2)Cl)N)C3=NC=NC4=C3C=CN4
How it was run: as §1

IRAK-1-4 Inhibitor I = compound: C1COCCN1CCN2C3=CC=CC=C3N=C2NC(=O)C4=CC(=CC=C4)[N+](=O)[O-] [IRAK-1-4 Inhibitor I]
How it was run: as §1

ibrutinib = compound: C=CC(=O)N1CCC[C@@H](n2nc(-c3ccc(Oc4ccccc4)cc3)c3c(N)ncnc32)C1 [ibrutinib]
How it was run: as §1

[10] = compound: CC(=O)c1cnc2ccc(-c3cc(Cl)c(O)c(Cl)c3)nc2c1N[C@H]1CC[C@H](CN(C)C)CC1
How it was run: as §1

ralimetinib = compound: CC(C)(C)Cn1c(N)nc2ccc(-c3[nH]c(C(C)(C)C)nc3-c3ccc(F)cc3)nc21 [ralimetinib]
How it was run: as §1

[11] = compound: CC(C)(O)CC(=O)NCCn1ccc2ncnc(Nc3ccc(Oc4cccc(C(F)(F)F)c4)c(Cl)c3)c21
How it was run: as §1

[12] = compound: CC(C)C1=C2N=C(C=C(N2N=C1)NCC3=CC=CC=C3)NCCCCCCN
How it was run: as §1

[13] = compound: CC(C)C[C@@H](C=O)NC(=O)[C@H](CC(C)C)NC(=O)[C@H](CC(C)C)NC(=O)OCc1ccccc1
How it was run: as §1

pinometostat = compound: CC(C)N(C[C@H]1O[C@@H](n2cnc3c(N)ncnc32)[C@H](O)[C@@H]1O)[C@H]1C[C@@H](CCc2nc3cc(C(C)(C)C)ccc3[nH]2)C1 [pinometostat]
How it was run: as §1

[14] = compound: CC1=C(C(CC(=O)N1)C2=CC=C(C=C2)C(F)(F)F)C(=O)NC3=C(C=C4C(=C3)C=NN4)F
How it was run: as §1

[15] = compound: CC1=C(C2=C(C=C1)C(=O)C3=CC=CC=C3N2CCCN)C
How it was run: as §1

Measured: log2 fold change

PPCDC (UniProt Q96CD2)
inactive: erlotinib 0.02 | [1] 0.003 | [2] -0.036 | [3] -0.102 | [4] 0.095 | [5] -0.05 | [6] 0.047 | [7] 0.009 | [8] -0.198 | [9] 0.033 | IRAK-1-4 Inhibitor I 0.029 | ibrutinib -0.002 | [10] -0.03 | ralimetinib -0.075 | [11] -0.052 | [12] 0.063 | [13] -0.045 | pinometostat -0.104 | [14] 0.018 | [15] 0.03

PNKD isoform 3 (UniProt Q8N490)
inactive: erlotinib 0.026 | [1] 0.01 | [2] -0.092 | [3] -0.007 | [4] 0.089 | [5] -0.104 | [6] 0.02 | [7] -0.015 | [8] -0.022 | [9] 0.013 | IRAK-1-4 Inhibitor I 0.018 | ibrutinib 0.177 | [10] 0.013 | ralimetinib 0.088 | [11] 0.025 | [12] -0.045 | [13] 0.126 | pinometostat -0.014 | [14] 0.005 | [15] 0.101

PPIA (UniProt P62937)
inactive: erlotinib -0.036 | [1] 0.044 | [2] 0.064 | [3] -0.05 | [4] 0 | [5] 0.01 | [6] 0.026 | [7] 0.033 | [8] 0.009 | [9] 0.01 | IRAK-1-4 Inhibitor I 0.02 | ibrutinib -0.006 | [10] -0.01 | ralimetinib -0.001 | [11] -0.021 | [12] -0.017 | [13] -0.011 | pinometostat -0.057 | [14] -0.007 | [15] 0.012

POGLUT2 (UniProt Q6UW63)
inactive: erlotinib -0.076 | [1] -0.055 | [2] -0.047 | [3] 0.041 | [4] 0.036 | [5] 0.006 | [6] -0.05 | [7] 0.039 | [8] -0.011 | [9] -0.015 | IRAK-1-4 Inhibitor I -0.052 | ibrutinib -0.03 | [10] -0.007 | ralimetinib -0.005 | [11] 0.019 | [12] -0.01 | [13] 0.047 | pinometostat 0.058 | [14] 0.037 | [15] -0.06

POR (UniProt P16435)
inactive: erlotinib 0.004 | [1] 0.07 | [2] 0.045 | [3] -0.013 | [4] -0.011 | [5] 0.017 | [6] 0.016 | [7] 0.02 | [8] 0.002 | [9] 0.076 | IRAK-1-4 Inhibitor I 0.024 | ibrutinib -0.003 | [10] -0.051 | ralimetinib -0.014 | [11] -0.058 | [12] 0.049 | [13] -0.005 | pinometostat -0.013 | [14] -0.045 | [15] -0.026

PMF1 (UniProt Q6P1K2)
inactive: erlotinib 0.007 | [1] 0.096 | [2] 0.027 | [3] 0.041 | [4] 0.045 | [5] 0.078 | [6] -0.03 | [7] -0.034 | [8] -0.14 | [9] -0.052 | IRAK-1-4 Inhibitor I -0.082 | ibrutinib 0.072 | [10] -0.019 | ralimetinib 0.023 | [11] -0.109 | [12] -0.012 | [13] 0.035 | pinometostat 0.004 | [14] -0.05 | [15] -0.029

POLR1C (UniProt O15160)
inactive: erlotinib 0.03 | [1] 0.042 | [2] -0.07 | [3] -0.046 | [4] -0.013 | [5] 0.022 | [6] -0.025 | [7] 0.034 | [8] -0.045 | [9] -0.142 | IRAK-1-4 Inhibitor I -0.066 | ibrutinib -0.049 | [10] 0.013 | ralimetinib 0.071 | [11] -0.074 | [12] -0.204 | [13] 0.037 | pinometostat 0.063 | [14] 0.017 | [15] 0.051

POLR3A (UniProt O14802)
inactive: erlotinib 0.094 | [1] 0.002 | [2] -0.05 | [3] -0.036 | [4] -0.005 | [5] 0.014 | [6] 0.027 | [7] 0.017 | [8] -0.067 | [9] -0.045 | IRAK-1-4 Inhibitor I -0.096 | ibrutinib -0.025 | [10] 0.067 | ralimetinib -0.014 | [11] -0.048 | [12] -0.049 | [13] 0.071 | pinometostat 0.08 | [14] 0.112 | [15] 0.175

POP4 (UniProt O95707)
inactive: erlotinib 0.001 | [1] 0.055 | [2] -0.075 | [3] 0.115 | [4] 0.051 | [5] -0.022 | [6] -0.004 | [7] -0.006 | [8] 0.014 | [9] -0.031 | IRAK-1-4 Inhibitor I -0.04 | ibrutinib 0.008 | [10] 0.016 | ralimetinib 0.063 | [11] 0.006 | [12] -0.033 | [13] 0.048 | pinometostat 0.085 | [14] -0.069 | [15] -0.106

POTEF (UniProt A5A3E0)
inactive: erlotinib 0.008 | [1] -0.023 | [2] 0.039 | [3] 0.048 | [4] -0.004 | [5] 0.001 | [6] -0.043 | [7] -0.007 | [8] -0.023 | [9] 0.044 | IRAK-1-4 Inhibitor I 0.047 | ibrutinib 0.037 | [10] -0.006 | ralimetinib -0.023 | [11] 0.011 | [12] 0.064 | [13] 0.028 | pinometostat -0.007 | [14] 0 | [15] -0.023

PPA2 (UniProt Q9H2U2)
inactive: erlotinib 0.009 | [1] 0.027 | [2] 0.068 | [3] -0.006 | [4] 0.025 | [5] -0.002 | [6] 0.028 | [7] 0.007 | [8] 0.024 | [9] -0.041 | IRAK-1-4 Inhibitor I 0.045 | ibrutinib 0.01 | [10] -0.003 | ralimetinib -0.048 | [11] -0.031 | [12] -0.031 | [13] -0.046 | pinometostat -0.044 | [14] -0.007 | [15] 0.024

POFUT2 (UniProt Q9Y2G5)
inactive: erlotinib -0.056 | [1] -0.017 | [2] -0.069 | [3] 0.006 | [4] 0.043 | [5] 0.01 | [6] -0.044 | [7] -0.033 | [8] -0.023 | [9] 0.054 | IRAK-1-4 Inhibitor I -0.06 | ibrutinib -0.03 | [10] -0.037 | ralimetinib 0.044 | [11] 0.039 | [12] -0.074 | [13] -0.002 | pinometostat 0.07 | [14] -0.007 | [15] 0.014

Two entries picked at random from those above:
POTEF (UniProt A5A3E0)
inactive: erlotinib 0.008 | [1] -0.023 | [2] 0.039 | [3] 0.048 | [4] -0.004 | [5] 0.001 | [6] -0.043 | [7] -0.007 | [8] -0.023 | [9] 0.044 | IRAK-1-4 Inhibitor I 0.047 | ibrutinib 0.037 | [10] -0.006 | ralimetinib -0.023 | [11] 0.011 | [12] 0.064 | [13] 0.028 | pinometostat -0.007 | [14] 0 | [15] -0.023

PPCDC (UniProt Q96CD2)
inactive: erlotinib 0.02 | [1] 0.003 | [2] -0.036 | [3] -0.102 | [4] 0.095 | [5] -0.05 | [6] 0.047 | [7] 0.009 | [8] -0.198 | [9] 0.033 | IRAK-1-4 Inhibitor I 0.029 | ibrutinib -0.002 | [10] -0.03 | ralimetinib -0.075 | [11] -0.052 | [12] 0.063 | [13] -0.045 | pinometostat -0.104 | [14] 0.018 | [15] 0.03

Remaining list, next part:

POMGNT1 isoform 2 (UniProt Q8WZA1)
inactive: erlotinib 0.077 | [1] -0.037 | [2] -0.042 | [3] 0.005 | [4] 0.08 | [5] 0.044 | [6] -0.159 | [7] 0.014 | [8] 0.13 | [9] -0.062 | IRAK-1-4 Inhibitor I -0.041 | ibrutinib -0.065 | [10] -0.072 | ralimetinib -0.216 | [11] 0.167 | [12] 0.081 | [13] 0.21 | pinometostat -0.085 | [14] -0.084 | [15] 0.057

PPAT (UniProt Q06203)
inactive: erlotinib 0.003 | [1] -0.015 | [2] 0.03 | [3] 0.004 | [4] 0.036 | [5] 0.002 | [6] -0.012 | [7] -0.012 | [8] -0.015 | [9] 0.06 | IRAK-1-4 Inhibitor I 0.004 | ibrutinib 0.013 | [10] 0 | ralimetinib -0.075 | [11] -0.017 | [12] 0.08 | [13] -0.022 | pinometostat -0.051 | [14] 0.001 | [15] 0.037

PPAN isoform 3 (UniProt Q9NQ55)
inactive: erlotinib -0.041 | [1] -0.004 | [2] -0.417 | [3] -0.049 | [4] -0.117 | [5] 0.026 | [6] -0.104 | [7] 0.082 | [8] -0.117 | [9] -0.384 | IRAK-1-4 Inhibitor I -0.102 | ibrutinib 0.009 | [10] 0.231 | ralimetinib 0.171 | [11] 0.111 | [12] 0.328 | [13] 0.091 | pinometostat 0.429 | [14] 0.167 | [15] -0.814

PPIB (UniProt P23284)
inactive: erlotinib -0.088 | [1] -0.033 | [2] -0.035 | [3] 0 | [4] -0.023 | [5] -0.029 | [6] -0.028 | [7] 0.013 | [8] 0.014 | [9] -0.015 | IRAK-1-4 Inhibitor I -0.035 | ibrutinib -0.033 | [10] 0.028 | ralimetinib 0.021 | [11] 0.069 | [12] 0.026 | [13] 0.02 | pinometostat 0.025 | [14] 0.011 | [15] 0.007
